Data from PMC9929037.

By UniProt entry, the sequences of proteins in these tests, tags left out. Where a name states a change or a piece, a line headed by the entry shows the natural chain unless it says otherwise.
UniProt A0A3B5ZSS4: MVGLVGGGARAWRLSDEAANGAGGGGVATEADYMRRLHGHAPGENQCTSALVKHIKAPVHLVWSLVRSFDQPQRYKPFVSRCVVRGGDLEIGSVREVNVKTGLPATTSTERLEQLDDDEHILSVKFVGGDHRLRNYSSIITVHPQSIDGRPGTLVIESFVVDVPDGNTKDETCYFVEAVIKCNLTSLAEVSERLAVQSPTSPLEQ

Assays:
[1] = biological target: cLUC-TaPP2C-7A (Triticum aestivum (bread wheat)); assay: split reporter; firefly luciferase complementation imaging (LCI); cLUC and nLUC fusions co-expressed in N. benthamiana leaves by Agrobacterium GV3101 infiltration; luminescence imaged after 36-48 h
[2] = biological target: cLUC-TaPP2C-7A (Triticum aestivum (bread wheat)); assay: split reporter; LCI of cLUC-TaPP2C-7A with nLUC-TaPYL-1D in N. benthamiana leaves with a third protein co-expressed (TN1-GFP, tn1-GFP or GFP empty vector); relative luminescence, GFP EV combination set to 1

- binding [1]: binds
- binding [2]: binds
Substance: nLUC-TaPYL-1D (from UniProt A0A3B5ZSS4) (receptor)

These are yes or no findings as the source states them, for the method shown. In cells and extracts the contact can be indirect. A result given as binding can be weak or reduced; the word gives no strength.
